Measurements: patent US9359422B2 (The University of Queensland, priority 2010, dated 2016)

Experiment: general procedure: Fmoc solid-phase peptide synthesis; Fmoc-PAL-PEG-PS or Fmoc-L-Arg(Pbf)-PEG-PS; HCTU/DIPEA (continuous flow) or HBTU/DIPEA (microwave)
Conditions: purification step, relative to crude material after resin cleavage

RAAPYGVRLSGREFIRAVIFTSR-NH2
step yield: ˜50%
